No constants are given. Whether binding was seen depends on the method and setting. For some assays here: Binding seen in cells or lysates may run through a third protein. Some results given as binding are weak or reduced against the parent protein; the word gives no strength. Sequences can lack the tags named with a protein.
Assays:
[1] = biological target: T1, hexa-histidine tagged PsMT2 (Papaver somniferum, UniProt I3PLQ6 1-356); assay: SEC; purified complex on a BioSep-SEC-s4000 column, 300 mM NaCl in 100 mM sodium phosphate buffer, pH 7.5, 1 ml/min; calibrated with protein standards of 12.4-200 kDa; both purified
T1 construct: PsMT2, O-methyltransferase of the noscapine gene cluster of Papaver somniferum; gene codon-optimised for S. cerevisiae, amplified with primers PsMT2-pET-F/R and inserted into pET28a; Printed mass of the His-tagged protein is 40.09 kDa; also called His-tagged PsMT2; source: E. coli BL21(DE3), co-expressed with T7-tagged PsMT3 or Ps6OMT; complex purified (Ni-NTA agarose, then T7 tag antibody …)
T1 sequence (looked up): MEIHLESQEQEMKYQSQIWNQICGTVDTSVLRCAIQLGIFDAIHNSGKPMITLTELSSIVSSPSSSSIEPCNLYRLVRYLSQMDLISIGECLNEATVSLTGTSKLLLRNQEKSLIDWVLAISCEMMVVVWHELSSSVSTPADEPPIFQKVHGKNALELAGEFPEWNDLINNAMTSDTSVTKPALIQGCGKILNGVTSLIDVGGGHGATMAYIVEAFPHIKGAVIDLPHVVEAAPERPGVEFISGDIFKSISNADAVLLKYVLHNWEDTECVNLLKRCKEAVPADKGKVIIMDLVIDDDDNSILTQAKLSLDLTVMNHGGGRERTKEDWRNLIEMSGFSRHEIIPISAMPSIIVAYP

[2] = biological target: T1, hexa-histidine tagged PsMT2; assay: pull-down; tandem affinity co-purification from lysate of E. coli co-expressing both proteins: Ni-NTA agarose (His-tagged PsMT2), eluate then on T7 tag antibody agarose (T7-tagged partner); product analysed by SDS-PAGE and western blot with Anti-6X His tag and Anti-T7 tag antibodies

binding [1]: binds
binding [2]: binds
B1: T7-tagged PsMT3 (enzyme, UniProt I3PLQ7 1-339)
chain: MEVVSKIDQENQAKIWKQIFGFAESLVLKCAVQLEIAETLHNNVKPMSLSELASKLPAQPVNEDRLYRILHFLVHMKLFNKDATTQKYSLAPPAKYLLKGWEKSMVPSILSVTDKDFTAPWNHLGDGLTGNCNAFEKALGKGIRVYMRENPEKDQLFNEGMACDTRLFASALVNECKSIFSDGINTLAGVGRGTGTAVKAISKAFPDIKCTIHDLPEVTSKNSKIPRDVFKSVPSADAIFMKSILHEWNDEECIQILKRCKEAIPKGGKVIIADVVIDMDSTHPYSKSRLAMDLAMMLHTGGKERTEEDWKKLIDAAGFASCKITKLSALQSVIEAYPH
